Drawing on PMC7435177, this text covers binding for one molecule.

The chains behind the UniProt entries cited, without tags or fusion partners.
UniProt Q14457: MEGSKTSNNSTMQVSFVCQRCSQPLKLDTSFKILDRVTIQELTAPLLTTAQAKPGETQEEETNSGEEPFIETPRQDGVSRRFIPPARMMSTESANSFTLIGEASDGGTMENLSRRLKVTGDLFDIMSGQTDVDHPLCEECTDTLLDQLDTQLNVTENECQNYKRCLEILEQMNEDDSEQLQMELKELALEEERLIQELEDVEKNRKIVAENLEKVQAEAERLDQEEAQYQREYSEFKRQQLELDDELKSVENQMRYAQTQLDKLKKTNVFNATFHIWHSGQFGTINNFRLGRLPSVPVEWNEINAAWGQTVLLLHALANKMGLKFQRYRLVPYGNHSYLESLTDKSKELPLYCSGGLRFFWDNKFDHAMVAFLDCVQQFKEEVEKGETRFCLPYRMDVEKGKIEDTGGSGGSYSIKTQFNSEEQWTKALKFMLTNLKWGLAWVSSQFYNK

No constants are given. Whether binding was seen depends on the method and setting. In cells and extracts the contact can be indirect.

In the assay the target is BECLIN1 (human (endogenous in M14-derived melanoma cells)) (UniProt Q14457). The assay can be described thus: co-IP; cells lysed at 4 °C in ice-cold lysis buffer; immunoprecipitation with BECLIN1 antibody, complexes captured with protein A+G agarose beads, eluted by boiling in SDS sample buffer, western blot. (Immunoblotting shows a protein as a band on a membrane.)

B1: S100A8 (protein, UniProt P05109 1-93)
chain: MLTELEKALNSIIDVYHKYSLIKGNFHAVYRDDLKKLLETECPQYIRKKGADVWFKELDINTDGAVNFQEFLILVIKMGVAAHKKSHEESHKE
As to B1, the binding result was “no binding”.
